Measured values: article PMC9981882
These are yes or no findings as the source states them, for the method shown. Binding calls can cover weak binding; strength is not graded here.

By UniProt entry, the sequences of proteins in these tests, tags left out. Where a name states a change or a piece, a line headed by the entry shows the natural chain unless it says otherwise. Residues count along the entry.
UniProt Q02763: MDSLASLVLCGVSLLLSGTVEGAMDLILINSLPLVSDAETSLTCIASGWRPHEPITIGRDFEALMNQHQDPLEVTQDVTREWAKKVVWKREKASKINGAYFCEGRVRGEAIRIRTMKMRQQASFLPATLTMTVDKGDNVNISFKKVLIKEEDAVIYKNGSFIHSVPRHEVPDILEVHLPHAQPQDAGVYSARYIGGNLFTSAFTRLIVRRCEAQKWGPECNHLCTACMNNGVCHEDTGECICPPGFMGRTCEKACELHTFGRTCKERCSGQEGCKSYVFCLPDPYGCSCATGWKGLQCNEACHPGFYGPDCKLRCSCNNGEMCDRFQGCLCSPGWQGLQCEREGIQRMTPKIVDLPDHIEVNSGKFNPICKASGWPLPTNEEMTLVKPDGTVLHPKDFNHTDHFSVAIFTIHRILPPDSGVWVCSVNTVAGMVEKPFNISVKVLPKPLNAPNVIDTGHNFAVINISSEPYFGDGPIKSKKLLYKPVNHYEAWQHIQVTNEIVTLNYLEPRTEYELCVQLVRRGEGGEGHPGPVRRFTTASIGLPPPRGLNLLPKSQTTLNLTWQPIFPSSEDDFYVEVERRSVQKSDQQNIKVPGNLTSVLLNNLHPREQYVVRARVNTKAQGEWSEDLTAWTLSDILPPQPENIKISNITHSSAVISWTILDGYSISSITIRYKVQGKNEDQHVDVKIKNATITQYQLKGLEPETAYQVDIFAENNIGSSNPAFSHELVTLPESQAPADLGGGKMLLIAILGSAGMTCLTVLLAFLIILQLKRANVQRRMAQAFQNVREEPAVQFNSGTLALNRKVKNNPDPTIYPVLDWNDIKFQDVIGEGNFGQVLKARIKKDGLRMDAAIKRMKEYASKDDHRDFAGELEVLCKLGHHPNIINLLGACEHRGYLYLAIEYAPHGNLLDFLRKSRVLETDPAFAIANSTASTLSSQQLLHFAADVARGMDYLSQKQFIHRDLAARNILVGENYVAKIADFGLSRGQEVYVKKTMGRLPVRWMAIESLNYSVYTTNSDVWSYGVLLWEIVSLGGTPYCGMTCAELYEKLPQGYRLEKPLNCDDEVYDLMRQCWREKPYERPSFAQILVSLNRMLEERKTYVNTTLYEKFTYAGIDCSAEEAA
UniProt O15123, residues 19-496: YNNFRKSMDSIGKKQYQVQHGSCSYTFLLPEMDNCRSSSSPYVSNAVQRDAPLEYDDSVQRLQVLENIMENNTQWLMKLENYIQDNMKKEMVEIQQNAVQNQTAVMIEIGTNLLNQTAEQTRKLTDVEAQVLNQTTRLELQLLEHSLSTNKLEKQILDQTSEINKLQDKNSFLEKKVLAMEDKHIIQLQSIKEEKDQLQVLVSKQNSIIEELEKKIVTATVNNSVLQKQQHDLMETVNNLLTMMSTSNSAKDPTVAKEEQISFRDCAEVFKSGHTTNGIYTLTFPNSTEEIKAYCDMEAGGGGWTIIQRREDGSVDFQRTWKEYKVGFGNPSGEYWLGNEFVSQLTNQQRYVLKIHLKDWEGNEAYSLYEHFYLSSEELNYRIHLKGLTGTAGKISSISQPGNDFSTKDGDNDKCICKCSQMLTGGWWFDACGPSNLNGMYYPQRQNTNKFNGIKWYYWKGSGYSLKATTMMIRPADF

Target: Tie2 (tunica interna endothelial cell kinase 2), immobilized on the Octet biosensor (UniProt Q02763)
Assay: BLI; Octet Red 96e, Ni-NTA sensors, Tie2 immobilised; first step 100 nM ANGPT1 or ANGPT2 in PBS (up to 2200 sec), second step PBS, 100 nM ANGPT1 (or ANGPT2) or 27.2 nM 4E2; order of the steps also reversed; both purified

binding: binds
Substance: angiopoietin-2 (from UniProt O15123 19-496) (ligand)
